Experimental data: patent publication US20080131910A1
Results are given in words; binding and its absence hold for the method and conditions named. Some results given as binding are weak or reduced against the parent protein; the word gives no strength.

By UniProt entry, the sequences of proteins in these tests, tags left out. Where a name states a change or a piece, a line headed by the entry shows the natural chain unless it says otherwise. Residues count along the entry.
UniProt P37023: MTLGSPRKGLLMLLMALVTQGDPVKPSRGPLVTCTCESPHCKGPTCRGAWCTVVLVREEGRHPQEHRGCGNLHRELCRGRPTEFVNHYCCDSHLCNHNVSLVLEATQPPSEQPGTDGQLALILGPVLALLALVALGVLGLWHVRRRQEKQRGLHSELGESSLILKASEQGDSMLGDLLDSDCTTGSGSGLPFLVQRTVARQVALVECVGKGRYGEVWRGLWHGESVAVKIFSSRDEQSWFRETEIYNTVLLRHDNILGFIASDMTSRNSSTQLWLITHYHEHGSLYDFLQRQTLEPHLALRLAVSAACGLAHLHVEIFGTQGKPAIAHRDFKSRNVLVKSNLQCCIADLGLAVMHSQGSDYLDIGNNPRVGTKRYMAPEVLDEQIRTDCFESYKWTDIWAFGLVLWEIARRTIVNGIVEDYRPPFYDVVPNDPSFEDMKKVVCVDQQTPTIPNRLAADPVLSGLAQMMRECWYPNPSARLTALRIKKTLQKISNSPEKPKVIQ
UniProt P01137, residues 279-390: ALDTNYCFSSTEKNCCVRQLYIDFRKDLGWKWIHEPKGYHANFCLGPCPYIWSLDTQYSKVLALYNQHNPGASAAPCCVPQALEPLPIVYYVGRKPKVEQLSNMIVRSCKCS
UniProt P08476, residues 311-426: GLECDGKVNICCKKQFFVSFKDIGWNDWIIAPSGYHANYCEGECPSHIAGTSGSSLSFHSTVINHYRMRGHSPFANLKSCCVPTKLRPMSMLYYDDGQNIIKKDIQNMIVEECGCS

What was measured:
[1] = biological target: T1, ALK-5 endogenous in untransfected porcine aortic endothelial (PAE) cells (porcine) (UniProt Q5CD21); experiment: affinity cross-linking (DSS) on untransfected PAE cells, SDS-PAGE and autoradiography
T1 sequence: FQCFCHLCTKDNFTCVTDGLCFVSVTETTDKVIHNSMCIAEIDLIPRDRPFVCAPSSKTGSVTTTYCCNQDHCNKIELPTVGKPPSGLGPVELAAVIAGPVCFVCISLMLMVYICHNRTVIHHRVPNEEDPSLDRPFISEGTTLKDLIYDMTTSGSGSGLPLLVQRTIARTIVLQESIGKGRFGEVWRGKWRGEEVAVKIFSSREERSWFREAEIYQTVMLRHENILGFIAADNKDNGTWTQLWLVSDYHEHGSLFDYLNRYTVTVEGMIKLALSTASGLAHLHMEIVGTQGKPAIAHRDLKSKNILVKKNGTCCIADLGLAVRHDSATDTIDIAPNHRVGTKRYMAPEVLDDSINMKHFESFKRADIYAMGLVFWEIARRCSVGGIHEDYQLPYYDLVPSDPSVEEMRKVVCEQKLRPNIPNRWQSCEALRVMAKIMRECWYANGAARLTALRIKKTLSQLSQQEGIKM

[2] = biological target: T2, ALK-4 endogenous in PAE/Chim A cells (porcine) (UniProt D3K5N5); experiment: 125I-activin A cross-linking followed by immunoprecipitation, PAE/Chim A cells
T2 sequence: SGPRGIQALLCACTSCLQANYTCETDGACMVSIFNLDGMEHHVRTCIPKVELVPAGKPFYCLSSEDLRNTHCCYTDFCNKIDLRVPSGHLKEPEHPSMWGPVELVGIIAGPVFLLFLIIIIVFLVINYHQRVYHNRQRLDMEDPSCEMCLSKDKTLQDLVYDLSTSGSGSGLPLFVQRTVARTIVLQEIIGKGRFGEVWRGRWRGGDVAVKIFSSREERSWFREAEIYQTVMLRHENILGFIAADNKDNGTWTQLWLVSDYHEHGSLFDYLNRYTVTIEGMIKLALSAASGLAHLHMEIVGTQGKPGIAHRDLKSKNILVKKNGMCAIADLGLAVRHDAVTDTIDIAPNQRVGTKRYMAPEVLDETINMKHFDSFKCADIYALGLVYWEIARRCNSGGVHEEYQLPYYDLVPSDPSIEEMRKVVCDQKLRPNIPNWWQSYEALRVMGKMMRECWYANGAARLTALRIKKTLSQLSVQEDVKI

[3] = biological target: ALK-1 (activin receptor like kinase 1), human (human) (UniProt P37023); experiment: summary of the affinity cross-linking experiments in co-transfected COS-1 cells
[4] = biological target: ALK-1 (activin receptor like kinase 1), human (human) (UniProt P37023); experiment: affinity cross-linking followed by immunoprecipitation, COS-1 cells co-transfected with ActR-II and the ALK

Row | Substance | binding [1] | binding [2] | binding [3] | binding [4]
1 | Recombinant human TGF-β1 (from UniProt P01137 279-390) (ligand) | binds | – | – | –
2 | Recombinant human activin A (from UniProt P08476 311-426) (ligand) | – | binds | binds | binds
